{
  "source": "PubChem BioAssay AID276",
  "about": "(DTP/NCI, 2004)",
  "test_system": "B6C3F1 mice, Lewis lung carcinoma iv, survival T/C",
  "assay": "NCI In Vivo Anticancer Drug Screen. Data for tumor model Lewis Lung Carcinoma (intravenous) in B6C3F1 mice",
  "conditions": "T/C endpoint: median survival time, schedule: Q01DX009 (ip), higher T/C = longer survival",
  "experimental": "The antitumor activity of compounds was measured in mice bearing transplantable tumors. Survival or tumor size were measured and the results are expressed as the measurement made in the treated group (T) divided by the measurement made in the vehicle treated control group (C). The tumor model used in this assay is Lewis Lung Carcinoma (intravenous) in B6C3F1 mice",
  "note": "The list is a part of this screen's results and no random one: it covers a few groups of compounds. Other doses and runs of a compound may be missing. T/C: endpoint of the treated group in % of that of the vehicle group. For survival time, this PubChem deposit counts one and a half times the control or more as active, and values a quarter to a half above the control carry no call in these data; other NCI protocols may use other cut-offs. Schedules are NCI's codes, read here as Q, the interval in days (D) or hours (H), X, the number of doses. Some T/C values are marked as having no survivor count here; that says nothing about deaths at the dose. Some entries were tested several times; the values are given in rising order.",
  "data": [
    {"molecule": "CC1=C[C@H]2O[C@@H]3C[C@H]4OC(=O)/C=C\\C=C\\C(C(C)O)OCC[C@@H](C)[C@H](O)C(=O)OC[C@@]2(CC1)[C@]4(C)[C@]31CO1", "note": "(some centres not stated)", "values": [
      {"measurement": "T/C", "setting": "dose: 0.03 mg/kg/injection, vehicle: Klucel (hydroxypropylcellulose) (HPC)", "value": "92 % of control [survivor count not shown]"},
      {"measurement": "T/C", "setting": "dose: 0.06 mg/kg/injection, vehicle: Klucel (hydroxypropylcellulose) (HPC)", "value": "108 % of control [survivor count not shown]"},
      {"measurement": "T/C", "setting": "dose: 0.13 mg/kg/injection, vehicle: Klucel (hydroxypropylcellulose) (HPC)", "value": "103 % of control [survivor count not shown]"}
    ]},
    {"molecule": "CC1=C[C@H]2O[C@@H]3[C@H](O)[C@@H](O)[C@](C)([C@@]2(CO)CC1)[C@@]31CO1", "values": [
      {"measurement": "T/C", "setting": "dose: 0.25 mg/kg/injection, vehicle: saline", "value": "104 % of control [survivor count not shown]"},
      {"measurement": "T/C", "setting": "dose: 0.5 mg/kg/injection, vehicle: saline", "value": "105 % of control [survivor count not shown]"},
      {"measurement": "T/C", "setting": "dose: 1.0 mg/kg/injection, vehicle: saline", "value": "100 % of control [survivor count not shown]"},
      {"measurement": "T/C", "setting": "dose: 2.0 mg/kg/injection, vehicle: saline", "value": "109 % of control [survivor count not shown]"},
      {"measurement": "T/C", "setting": "dose: 4.0 mg/kg/injection, vehicle: saline", "value": "115 % of control [survivor count not shown]"}
    ]},
    {"molecule": "CC(=O)OCC12CCC(C)=CC1OC1C(O)C(OC(C)=O)C2(C)C12CO2", "note": "(configuration not stated)", "values": [
      {"measurement": "T/C", "setting": "dose: 1.0 mg/kg/injection, vehicle: Klucel (hydroxypropylcellulose) (HPC)", "value": "104 % of control [survivor count not shown]"},
      {"measurement": "T/C", "setting": "dose: 1.0 mg/kg/injection, vehicle: suspension in saline", "value": "99 % of control [survivor count not shown]"},
      {"measurement": "T/C", "setting": "dose: 2.0 mg/kg/injection, vehicle: Klucel (hydroxypropylcellulose) (HPC)", "value": "110 [survivor count not shown] and 114 % of control [survivor count not shown]"},
      {"measurement": "T/C", "setting": "dose: 2.0 mg/kg/injection, vehicle: suspension in saline", "value": "110 % of control [survivor count not shown]"}
    ]},
    {"molecule": "CC(=O)OC[C@]12CC(=O)C(C)=C[C@H]1O[C@@H]1C(=O)[C@@H](OC(C)=O)[C@@]2(C)[C@@]12CO2", "values": [
      {"measurement": "T/C", "setting": "dose: 0.12 mg/kg/injection, vehicle: water", "value": "106 % of control [survivor count not shown]"},
      {"measurement": "T/C", "setting": "dose: 0.25 mg/kg/injection, vehicle: water", "value": "95 % of control [survivor count not shown]"},
      {"measurement": "T/C", "setting": "dose: 0.5 mg/kg/injection, vehicle: water", "value": "106 % of control [survivor count not shown]"},
      {"measurement": "T/C", "setting": "dose: 1.0 mg/kg/injection, vehicle: water", "value": "103 % of control [survivor count not shown]"},
      {"measurement": "T/C", "setting": "dose: 2.0 mg/kg/injection, vehicle: water", "value": "106 % of control [survivor count not shown]"}
    ]}
  ]
}
